The record followed here is the supplement of paper PMC12764529.

± gives the half width of the 95% confidence interval. For many entries, trypsin and chymotrypsin gave values far apart.

Series [1] can be described thus: folding stability dG unfold (combined trypsin and chymotrypsin); higher = more stable. The gist of the method: (§1)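 Unfolding free energy was derived, per protease or combined, against a sequence-predicted unfolded-state K50 and a shared folded-state K50, starting from K50 inferred by Bayesian fitting of sequencing counts. Digestion with trypsin and chymotrypsin was carried out on designed mini-proteins under 80 residues without cysteine in a PA-tagged cDNA display construct. Only designs with AlphaFold2 dimer inter-PAE above 15 were kept.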

Series [2] in a line: folding stability dG unfold from chymotrypsin proteolysis; higher = more stable. An outline of the steps: as §1
Series [3] in a line: folding stability dG unfold from trypsin proteolysis; higher = more stable. An outline of the steps:
as §1

Take “SAGGSAGGSAGGSAADPGQWKVIPIQISFEMKYTRMDPDGKPEEHTMEFTFNIPFVVPDSAGGSAGGSAGGS [r4_418_TrROS]”: the “folding stability dG unfold” value in series [1] stood at 4.32 ± 0.33 kcal/mol; in series [2], 5 ± 0.14 kcal/mol; in series [3], 2.9 ± 0.1 kcal/mol.

Turning to “SAGSVSVSIEVNEDGTVTITATVTVEVDGKTYTFTATATLKIEPAPPPPPPPKVEYKEVNGKIVEKKVLSAG [r5_169_TrROS_Hall]”, the “folding stability dG unfold” value was determined as 3.43 ± 0.72 kcal/mol in series [1], 3.86 ± 0.16 kcal/mol in series [2] and 1.31 ± 0.35 kcal/mol in series [3].

Turning to “SAGGMEKAKKTVTLTFRIPKELAEELKKGVPLGTKTIAEKLGLPSDVEVKFVEEDDDVVLVEVTLPVSAGGS [r16_679_TrMRF]”, the entries for the “folding stability dG unfold” value in series [1], in series [2] and in series [3] were 2.99 ± 0.12 kcal/mol, 3.491 ± 0.029 kcal/mol and 1.26 ± 0.026 kcal/mol, respectively.

Regarding “SAGGSAGGSAGGSMVTVPLTSPEEAEALVAAGVPITLPDGSPVPVTEVEFLPDGSLRIGVSAGGSAGGSAGG [r11_48_JUSTAS]”, the results for the “folding stability dG unfold” value in series [1], in series [2] and in series [3] were 0.834 ± 0.056 kcal/mol, 1.33 ± 0.057 kcal/mol and -1.07 ± 0.37 kcal/mol, respectively.

For the sequence “SAGGSIDIHLGDAENVEAEVFPDGTVVVRVRFAVPPSTPRTLTLRLRLVPPPVPPLVLPDDPLAKGSAGGSA [r2_368_TrMRF]”, the “folding stability dG unfold” value came to 3.92 ± 0.16 kcal/mol in series [1], 4.84 ± 0.12 kcal/mol in series [2] and 2.49 ± 0.064 kcal/mol in series [3].

In the case of “SAGGSAGGSAGEPEKLKPKPKIEVKPLRFTFPVPETGSLVEVEIYEFPDGTVLVRVKFYDSAGGSAGGSAGG [r11_463_TrMRF]”, the “folding stability dG unfold” value was found to be 3.87 ± 0.29 kcal/mol in series [1], 4.29 ± 0.098 kcal/mol in series [2] and 1.72 ± 0.079 kcal/mol in series [3].

Take “SAGGSAMTIEELKKLFPDKPIVKILDLKPVGDSYVLTVYYPKTGKVEKFVFTSLPPEQIKKIKEDNSAGGSA [r15_830_TrMRF]”: the “folding stability dG unfold” value in series [1] amounted to 3.56 ± 0.11 kcal/mol; in series [2] it was 4.14 ± 0.087 kcal/mol; in series [3] it was 1.59 ± 0.062 kcal/mol.

In the case of “SAGGSAGGSAGGKIKVKPGEKIEITLKNGYKIEIVKNKNGEKYAYIYNKNGKLIKKFKISAGGSAGGSAGGS [r10_150_TrROS_Hall]”, the entries for the “folding stability dG unfold” value in series [1], in series [2] and in series [3] were 3.71 ± 0.23 kcal/mol, 4.3 ± 0.22 kcal/mol and 1.24 ± 0.071 kcal/mol, respectively.

As to “SMIKLEIVIKGLSEEEVEELAEELARKLAEELGLKIEVKVERFKRKDGKEVYVRIEVTIEVRDEDGKLLPSA [r9_21_TrROS_Hall]”, the “folding stability dG unfold” value in series [1] was found to be 4.56 ± 0.12 kcal/mol; in series [2], 4.96 ± 0.12 kcal/mol; in series [3], 2.58 ± 0.11 kcal/mol.

For the sequence “SAGGMFTVTTPDGVTRAVERKVTITLKDVNGVEKTITIDLTDATEEEIKEIAEEIEKKGYELVSITIESAGG [r13_227_JUSTAS]”, the “folding stability dG unfold” value in series [1] is 0.651 ± 0.2 kcal/mol; in series [2] it was -0.907 ± 0.5 kcal/mol; in series [3], 1.5 ± 0.038 kcal/mol.

As to “SAGGSAGGSAGGRIRIRVETRTDANGNLTTTVQLEEEEPPPPPEPQTTTTTTTQTPPQTSAGGSAGGSAGGS [r10_496_TrROS_Hall]”, the “folding stability dG unfold” value in series [1] was determined as 1.98 ± 0.56 kcal/mol; in series [2] it was 0.949 ± 0.31 kcal/mol; in series [3], 3.01 ± 0.22 kcal/mol.

Consider “SAMVTVRIESYDPERGVLRLVIERDEAHPDIPVPPALTDAIRDAFAALGLEVRVTRHPDGTVTIEIPVPSAG [r14_865_TrMRF]”, for which the “folding stability dG unfold” value worked out at 5.75 ± 0.24 kcal/mol in series [1], 5.75 ± 0.12 kcal/mol in series [2] and 3.24 ± 0.081 kcal/mol in series [3].

Regarding “SAGGSAGGSAKTLTITLVFDSPEDALAAARALAEALGVEIKVEVRRRADGRLVVTAEIELPSAGGSAGGSAG [r3_273_TrROS_Hall]”, the figures for the “folding stability dG unfold” value in series [1], in series [2] and in series [3] were 2.99 ± 0.048 kcal/mol, 3.35 ± 0.045 kcal/mol and 0.923 ± 0.023 kcal/mol, respectively.

Regarding “SAGGSSMLYTIEVELEPVFPPGVRRRFRKTLTLETTPEELAALLAAIRARPPDVRLLRVVVREFPESAGGSA [r2_75_JUSTAS]”, the “folding stability dG unfold” value in series [1] is 2.22 ± 0.14 kcal/mol; in series [2] it was 2.72 ± 0.11 kcal/mol; in series [3], 0.615 ± 0.16 kcal/mol.
